Measurements reported in PubChem BioAssay AID720505 (Drosophila RNAi Screening Center, 2013).
In all, the deposit lists about 20,000 reagents; below is an unselected part of those that have a named target and a result. Over the whole deposit, about 2,100 (10%) got an active call. 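Raw plate signals without normalisation; calls rest on control-based scores that were not deposited; replicate 2 separates called from uncalled poorly.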 Unmarked entries are inactive. A plus sign joins genes that one reagent is predicted to hit. Not given: the amount of reagent, the time to read-out.

- Assay: 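Genes needed for store-operated calcium entry in fly cells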 (primary screen)
- System: Drosophila S2R+ cells
- Reagents: long dsRNA against Drosophila genes
- Conditions: thapsigargin (2 µM) in calcium-free buffer to empty internal stores, then 2 mM calcium added back
- Detection: 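Stores emptied by 2 µM thapsigargin without calcium, then 2 mM calcium re-added; fluo-4 fluorescence followed by FLIPR in 384-well plates, per-well averaged endpoint, raw; two screen passes, some wells retested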
- Reading the numbers: calcium signal and retest calcium signal: higher = more calcium entry after store depletion
- Active means: 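About 1500 genes called as lowering calcium entry, by varying amounts, judged against per-plate control wells with STIM1 as positive and Rho1 as negative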
- Meaning of the calls: active = called as lowering calcium entry; inactive = not called

The first 2 entries, ahead of the listing:
CG12768 [DRSC11680] | calcium signal, replicate 1: 125; calcium signal, replicate 2: 187
CG12768 [DRSC23215] | calcium signal, replicate 1: 96.3; calcium signal, replicate 2: 152

The listing, from the first entry:
CG12768 [DRSC11680] | calcium signal, replicate 1: 125; calcium signal, replicate 2: 187
CG12768 [DRSC23215] | calcium signal, replicate 1: 96.3; calcium signal, replicate 2: 152
CG3038 [DRSC18618] | calcium signal, replicate 1: 125; calcium signal, replicate 2: 113
beta3GalTII [DRSC07253] | calcium signal, replicate 1: 132; calcium signal, replicate 2: 198
Lcp65Ae [DRSC11212] | calcium signal, replicate 1: 78.2; calcium signal, replicate 2: 48.2
boly [DRSC21629] | calcium signal, replicate 1: 117; calcium signal, replicate 2: 129
CG6790 [DRSC16117] | calcium signal, replicate 1: 101; calcium signal, replicate 2: 143
Hsc70-1 [DRSC11185] | calcium signal, replicate 1: 97; calcium signal, replicate 2: 81.7
CG34428 [DRSC10119] | calcium signal, replicate 1: 103; calcium signal, replicate 2: 127
GluClalpha [DRSC16680] | calcium signal, replicate 1: 227; calcium signal, replicate 2: 143
lmd [DRSC15618] | calcium signal, replicate 1: 147; calcium signal, replicate 2: 249
ETH + asRNA:CR43257 [DRSC04612] | calcium signal, replicate 1: 108; calcium signal, replicate 2: 144
CG30432 [DRSC04833] | calcium signal, replicate 1: 104; calcium signal, replicate 2: 125
CG17026 [DRSC10237] | calcium signal, replicate 1: 100; calcium signal, replicate 2: 151; retest calcium signal, replicate 1: 84.8; retest calcium signal, replicate 2: 123
CG33155 + mRpL53 [DRSC05461] | calcium signal, replicate 1: 86.4; calcium signal, replicate 2: 154
lncRNA:roX1 [DRSC21884] | calcium signal, replicate 1: 64; calcium signal, replicate 2: 157
CG11779 [DRSC14384] | calcium signal, replicate 1: 139; calcium signal, replicate 2: 191
RpL12 [DRSC04344] | calcium signal, replicate 1: 42.7 (active); calcium signal, replicate 2: 115
Obp50c + Obp50b [DRSC05482] | calcium signal, replicate 1: 121; calcium signal, replicate 2: 120
CG7458 [DRSC11829] | calcium signal, replicate 1: 96.9; calcium signal, replicate 2: 146; retest calcium signal, replicate 1: 6510; retest calcium signal, replicate 2: 123
CG7458 [DRSC21340] | calcium signal, replicate 1: 124; calcium signal, replicate 2: 95.3
CG13308 [DRSC09979] | calcium signal, replicate 1: 107; calcium signal, replicate 2: 72.9
Obp58b [DRSC04161] | calcium signal, replicate 1: 156; calcium signal, replicate 2: 223
trem [DRSC15575] | calcium signal, replicate 1: 78; calcium signal, replicate 2: 74.5
CG13135 [DRSC02232] | calcium signal, replicate 1: 99.6; calcium signal, replicate 2: 98
CG34167 [DRSC01525] | calcium signal, replicate 1: 114 (active); calcium signal, replicate 2: 90.8
CG3588 [DRSC18473] | calcium signal, replicate 1: 96.3; calcium signal, replicate 2: 123
CG9426 [DRSC03219] | calcium signal, replicate 1: 111; calcium signal, replicate 2: 108
